Experimental data as given in PMC7819943, “Rice protein-binding microarrays: a tool to detect cis-acting elements near promoter regions in rice”.
This is one part of the list.

The chains behind the UniProt entries cited, without tags or fusion partners.
UniProt Q0JBA9, entry or part of it: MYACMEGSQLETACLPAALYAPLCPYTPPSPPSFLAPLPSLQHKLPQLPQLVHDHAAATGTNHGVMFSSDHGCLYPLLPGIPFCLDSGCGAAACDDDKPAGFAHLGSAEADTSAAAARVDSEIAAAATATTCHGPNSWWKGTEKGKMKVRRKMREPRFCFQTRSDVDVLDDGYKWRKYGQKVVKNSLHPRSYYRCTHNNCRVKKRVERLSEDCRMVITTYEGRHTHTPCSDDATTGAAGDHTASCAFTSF

These sequences were tested against OsWRKY34 (Oryza sativa, UniProt Q0JBA9 1-250) (assay: protein-binding microarray (RPBM); PBS, 2% BSA, 51.3 ng/ul salmon testes DNA, 50 uM zinc acetate, 200 nM TF, 25 C, 1 h; high values mean tight binding). Settings: protein: recombinant; tags: N-terminal polyhistidine and DsRed monomer fusion (pET32a); label: CyDye5-dUTP incorporated in the synthesized complementary strand; 3' TTTTT single-stranded linker to array surface; dsDNA, one strand shown.
In short: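 Binding signal here means per-feature fluorescence intensity in arbitrary units. The values were read on an Axon 4000B scanner after a custom Agilent array, double-stranded by primer extension with Cy5-dUTP, was incubated with 200 nM protein at 25 °C for 1 h in PBS with 2% BSA, salmon testes DNA and 50 µM zinc acetate, then washed. The proteins were transcription factors with an N-terminal polyhistidine tag and DsRed, expressed in E. coli BL21-CodonPlus and purified on Ni–NTA.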

Sequence | binding signal
ATGCTTCATCTAAAAGATCATTCATGCAATTTTTATTTTTCGGAGTCACCTAGTGCAG | 10100 fluorescence intensity (a.u.)
CCAAATCTCACGCGGCGCTTTCTCTCTCTCCCGCGAGATGCGGAGTCACCTAGTGCAG | 10000 fluorescence intensity (a.u.)
CCTGCCTGCCCAGCGATTCTTCCCACGATTTCCTTTCCTGCGGAGTCACCTAGTGCAG | 10300 fluorescence intensity (a.u.)
ACCCTCCGCCCCGCCCGCCACTCCCGCCATCCCGGCCGCCCGGAGTCACCTAGTGCAG | 12400 fluorescence intensity (a.u.)
ACCCAAAGCCACCCGCAACAACCGACGACGACGACGACCGCGGAGTCACCTAGTGCAG | 18200 fluorescence intensity (a.u.)
TTTTATGGGTCTTTTTTTACTTCAACATTATATATATATACGGAGTCACCTAGTGCAG | 10700 fluorescence intensity (a.u.)
ATCTATTGTTGTGGCTTCGCTGGTCAAATTTGCTGTTCTACGGAGTCACCTAGTGCAG | 10000 fluorescence intensity (a.u.)
AACCAAATCCTTGTTCTAGTCTTGTATCACCCGCATCTGCCGGAGTCACCTAGTGCAG | 10100 fluorescence intensity (a.u.)
TGGACTGGTGGTGTACTCGTGTTGAGTCTGCCCTCGTAACCGGAGTCACCTAGTGCAG | 12500 fluorescence intensity (a.u.)
TTGCATGTTTTGTTATCTTTGCCAGTTTTTGCATGTTTCTCGGAGTCACCTAGTGCAG | 10300 fluorescence intensity (a.u.)
TCTAGTCGGCGTGCACGCGATCACGCCGCACTTTTCCAACCGGAGTCACCTAGTGCAG | 8150 fluorescence intensity (a.u.)
ACTAGCTCATTTCACCCGTTGTTATGTAAACTCTTTAGCCCGGAGTCACCTAGTGCAG | 10400 fluorescence intensity (a.u.)
ATGTTGGTCTCACTTATCGCATCATCTAAAATTGGACACTCGGAGTCACCTAGTGCAG | 8280 fluorescence intensity (a.u.)
ATGCTTTGTTGTTTCTCTTTTTTTTTTTCCGGAATTGCTACGGAGTCACCTAGTGCAG | 8940 fluorescence intensity (a.u.)
AACAACCGGTAATTACTCCCTCGGTCCCTCAACATTTGACCGGAGTCACCTAGTGCAG | 10400 fluorescence intensity (a.u.)
CTCTCTCTCTCTCTCAGCCTCATATGAGCCGTGTCTGCCTCGGAGTCACCTAGTGCAG | 8200 fluorescence intensity (a.u.)
TGAATAATCTTACCCCAACTTGGCCAATTAATGTTTGTTACGGAGTCACCTAGTGCAG | 8540 fluorescence intensity (a.u.)
ATCGGTGATGTGGGAGGGGATACTAGAAAGGAGGATGAAGCGGAGTCACCTAGTGCAG | 9200 fluorescence intensity (a.u.)
GGAGGCATGATGGCGGCATGGTGGAGGGTGGGGTGACGTGCGGAGTCACCTAGTGCAG | 12000 fluorescence intensity (a.u.)
ACCTCGTACCTCGCCGCTGTTCCGTTCCGTGCTCTGTGTCCGGAGTCACCTAGTGCAG | 18700 fluorescence intensity (a.u.)
CACTACTCCACCCTACATGCCAGATCCGGTCAACAACAATCGGAGTCACCTAGTGCAG | 10000 fluorescence intensity (a.u.)
CTCAGTATTGGGTTGGGTGGTGGTGGCGGCGGTGGCAGTGCGGAGTCACCTAGTGCAG | 13700 fluorescence intensity (a.u.)
GTAAGTCATTCTAGCATTTTCCACATTCATATTAATGTTACGGAGTCACCTAGTGCAG | 8840 fluorescence intensity (a.u.)
AATCCACTGTATTTATCGTTTCCACCACATATTTTCCTCTCGGAGTCACCTAGTGCAG | 14000 fluorescence intensity (a.u.)
GTCGCCATCAACTCCGAGTCGACGTCGTCCTTCCTGCCGTCGGAGTCACCTAGTGCAG | 9570 fluorescence intensity (a.u.)
GGATTTGATTTGGAAGGATTTGGATTCGGAAATGAGCTCGCGGAGTCACCTAGTGCAG | 8210 fluorescence intensity (a.u.)
CTTATACTACTCCTATGTGCTAATACGGTCGCAGGGAAAACGGAGTCACCTAGTGCAG | 9760 fluorescence intensity (a.u.)

Look-ups from above:
ATGCTTCATCTAAAAGATCATTCATGCAATTTTTATTTTTCGGAGTCACCTAGTGCAG | binding signal: 10100 fluorescence intensity (a.u.)
ATCTATTGTTGTGGCTTCGCTGGTCAAATTTGCTGTTCTACGGAGTCACCTAGTGCAG | binding signal: 10000 fluorescence intensity (a.u.)
ACCCAAAGCCACCCGCAACAACCGACGACGACGACGACCGCGGAGTCACCTAGTGCAG | binding signal: 18200 fluorescence intensity (a.u.)
GGAGGCATGATGGCGGCATGGTGGAGGGTGGGGTGACGTGCGGAGTCACCTAGTGCAG | binding signal: 12000 fluorescence intensity (a.u.)

Following part:

Sequence | binding signal
CAAGTCTCAACGTTCTCAACGTTGACCGTATAGCGATTCGCGGAGTCACCTAGTGCAG | 9640 fluorescence intensity (a.u.)
CTGCTACAGCTTTACAACTCTATGGCCGTCTCTATATAAGCGGAGTCACCTAGTGCAG | 8070 fluorescence intensity (a.u.)
GGCCTTAGGGAGATGCTGGTTTTTGCTAATATGGCTCTTTCGGAGTCACCTAGTGCAG | 9810 fluorescence intensity (a.u.)
GTGCGTTGTGTGGTTGGTTGGTCAGTGTCTGGGTGGTCACCGGAGTCACCTAGTGCAG | 11400 fluorescence intensity (a.u.)
CGTGGTTGTGTGTGTGATTGCAGAAAAAAAAAAATCCTATCGGAGTCACCTAGTGCAG | 8610 fluorescence intensity (a.u.)
CCCGGCCTTGTTCGCGCTGTTCCTATAAACTCCCACTGACCGGAGTCACCTAGTGCAG | 10000 fluorescence intensity (a.u.)
TTTCTTTCATTTGTTGGCTACGACTTCCTTCTGCTCCTCTCGGAGTCACCTAGTGCAG | 8450 fluorescence intensity (a.u.)
TTACCCGAGAGACGCCACCTCACCGCACCCCGTCTCACAGCGGAGTCACCTAGTGCAG | 11900 fluorescence intensity (a.u.)
ACATTTACTTGTTGCAATGTACGTGTATTTTTTCTAGTAACGGAGTCACCTAGTGCAG | 10300 fluorescence intensity (a.u.)
TGTGGGTTTTAGCTTTTGCAGCCCGGATCGTTGACCCTTCCGGAGTCACCTAGTGCAG | 11400 fluorescence intensity (a.u.)
AGAGCTAGAACACCACTTGATTACCAGCTACGTACCCTAACGGAGTCACCTAGTGCAG | 8410 fluorescence intensity (a.u.)
TGCACCACCACTGTGCGCGTCTCCCGCCTCTTGCGCTCTCCGGAGTCACCTAGTGCAG | 8770 fluorescence intensity (a.u.)
GCCGTTAACTTTTTTAAATATGTTTGACCGTTCGTCTTATCGGAGTCACCTAGTGCAG | 10800 fluorescence intensity (a.u.)
TTTCACTTTATCTGTGTATGTGATTCAACAAGTTGTTGACCGGAGTCACCTAGTGCAG | 9160 fluorescence intensity (a.u.)
TGAGTCCTTACCTCTCTCTCTCCAATGTTCGTCTGCGGCACGGAGTCACCTAGTGCAG | 8390 fluorescence intensity (a.u.)
TTATGTTTCTACCTGCCATCCAGTTTCGTTCTCAAGTTTTCGGAGTCACCTAGTGCAG | 13800 fluorescence intensity (a.u.)
CCATAGAAGTTGTGGTTGGTTTATGTTTTTCACATGTTCTCGGAGTCACCTAGTGCAG | 15200 fluorescence intensity (a.u.)
AAGAAATCTCTTTGAAAAACTTGCATGCTAACTTGAGACGCGGAGTCACCTAGTGCAG | 44900 fluorescence intensity (a.u.)
AGATATATCCTGCATTCTCTTTGGTGGCATGCAAACTCAACGGAGTCACCTAGTGCAG | 8310 fluorescence intensity (a.u.)
TGTTAATTATTTTTCTATCATGATGCTATATCATTTTAATCGGAGTCACCTAGTGCAG | 9190 fluorescence intensity (a.u.)
GTTTTTGCAGGGAAGTCAGTTGCAACGCCGGCCATTTCATCGGAGTCACCTAGTGCAG | 9260 fluorescence intensity (a.u.)
CGGGGCGGGCTAACAAGAAGGTAGGATTGGATGGATATAGCGGAGTCACCTAGTGCAG | 10700 fluorescence intensity (a.u.)
AGCCGCAGAGTTCTTCATGGGCGGGATGGCAGTTCTTACTCGGAGTCACCTAGTGCAG | 11900 fluorescence intensity (a.u.)
GAGGGCGGCTATGGGGTTGTTTACCACGGTCGTCTTATAACGGAGTCACCTAGTGCAG | 9060 fluorescence intensity (a.u.)
TCAGATATAGCTGGCTGTAGAATTCACCACTTGATCAATTCGGAGTCACCTAGTGCAG | 8060 fluorescence intensity (a.u.)
AGCTTTCATGATCTTTTTCTGTCTATTTCGCTTGCACTCTCGGAGTCACCTAGTGCAG | 14600 fluorescence intensity (a.u.)
CACATTTGCGCTTTCCGACGCCTTTGCTGCGCGACTCGTTCGGAGTCACCTAGTGCAG | 10700 fluorescence intensity (a.u.)
